Assay [1] concerns the target T1, CRABS CLAW (CRC), full length, yeast two-hybrid fusion (Arabidopsis thaliana) (UniProt Q8L925).
T1 sequence: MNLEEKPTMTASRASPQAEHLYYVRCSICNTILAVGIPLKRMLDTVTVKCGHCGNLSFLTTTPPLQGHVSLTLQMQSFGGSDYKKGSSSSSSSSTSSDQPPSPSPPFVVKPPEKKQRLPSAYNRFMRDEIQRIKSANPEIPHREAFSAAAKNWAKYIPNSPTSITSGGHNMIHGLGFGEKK
As to the kind of experiment: two-hybrid; GAL4 AD (pGADT7) and BD (pGBKT7) fusions in S. cerevisiae AH109; growth on SD-Leu/-Trp/-His + 3 mM 3-AT and MEL1 based α-galactosidase assay, in triplicates.

The target of assay [2] is CRC Zinc Finger (CRC-ZF), single zinc finger domain, for BiFC (Arabidopsis thaliana) (UniProt Q8L925). As to the kind of experiment: split reporter; BiFC with YFPC- and YFPN-tagged CRC variants, transiently co-expressed in leaves of 4 weeks old N. benthamiana plants (A. tumefaciens GV3101); leaf disks with DAPI 2 days after infiltration, fluorescence microscopy.
Assay [3] has as its target CRC Intermediate (CRC-IM), single intermediate domain, for BiFC (Arabidopsis thaliana) (UniProt Q8L925). The assay is described as above.
Assay [4] deals with CRC YABBY (CRC-YD), single YABBY domain, YFPC- and YFPN-tagged for BiFC (Arabidopsis thaliana) (UniProt Q8L925). The assay is described as above.
Assay [5] has as its target T2, YABBY 2 (YAB2), yeast two-hybrid fusion (Arabidopsis thaliana) (UniProt Q9XFB0).
T2 sequence: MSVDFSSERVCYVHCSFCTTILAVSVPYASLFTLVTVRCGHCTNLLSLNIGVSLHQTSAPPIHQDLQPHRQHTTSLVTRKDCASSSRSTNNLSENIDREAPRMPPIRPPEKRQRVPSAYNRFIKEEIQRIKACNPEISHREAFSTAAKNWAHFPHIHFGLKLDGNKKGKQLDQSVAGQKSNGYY
The assay is described as follows: two-hybrid; GAL4 AD (pGADT7) and BD (pGBKT7) fusions in S. cerevisiae AH109; growth on SD-Leu/-Trp/-His + 3 mM 3-AT and MEL1 based α-galactosidase assay, in triplicates.

The target of assay [6] is T3, YABBY 5 (YAB5), yeast two-hybrid fusion (Arabidopsis thaliana) (UniProt Q8GW46).
T3 sequence: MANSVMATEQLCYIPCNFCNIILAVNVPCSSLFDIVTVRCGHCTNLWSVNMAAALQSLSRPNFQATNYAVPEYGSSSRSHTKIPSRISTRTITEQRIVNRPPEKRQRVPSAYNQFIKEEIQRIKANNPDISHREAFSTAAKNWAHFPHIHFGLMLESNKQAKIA
The description is as above.

Assay [7] addresses T4, FILAMENTOUS FLOWER (FIL), yeast two-hybrid fusion (Arabidopsis thaliana) (UniProt O22152).
T4 sequence: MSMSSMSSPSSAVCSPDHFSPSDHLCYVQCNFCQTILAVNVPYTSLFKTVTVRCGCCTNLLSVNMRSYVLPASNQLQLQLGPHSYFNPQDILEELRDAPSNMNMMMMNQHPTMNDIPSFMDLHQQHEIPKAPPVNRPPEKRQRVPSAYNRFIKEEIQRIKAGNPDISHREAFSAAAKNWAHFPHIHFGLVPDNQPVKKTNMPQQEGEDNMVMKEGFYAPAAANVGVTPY
Described as above.

For assay [8], the target named is T5, YABBY 3 (YAB3), yeast two-hybrid fusion (Arabidopsis thaliana) (UniProt Q9XFB1).
T5 sequence: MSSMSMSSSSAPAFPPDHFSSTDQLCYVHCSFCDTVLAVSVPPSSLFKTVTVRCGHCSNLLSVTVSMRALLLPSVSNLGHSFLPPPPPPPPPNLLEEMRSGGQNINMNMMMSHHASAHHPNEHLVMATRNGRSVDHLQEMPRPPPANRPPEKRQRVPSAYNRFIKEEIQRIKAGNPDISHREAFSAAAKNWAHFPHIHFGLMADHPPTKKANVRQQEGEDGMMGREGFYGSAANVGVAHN
Described as above.

In paper PMC6019494 one finds binding data, which are given here for eight molecules.

No constants are given. Whether binding was seen depends on the method and setting. For some assays here: In cells and extracts the contact can be indirect. Some results given as binding are weak or reduced against the parent protein; the word gives no strength. For some assays here: Sequences can lack the tags named with a protein.

B1: YABBY 5 (YAB5), yeast two-hybrid fusion (protein, UniProt Q8GW46 1-164)
chain: T3 sequence
With B1, the binding result in assay [1] is given as “no binding”.

B2: YABBY 2 (YAB2), yeast two-hybrid fusion (protein, UniProt Q9XFB0 1-184)
chain: T2 sequence
In the case of B2, in assay [1], the binding entry is “no binding”.
As for CSICNTILAVGIPLKRMLDTVTVKCGHC (domain or fragment, UniProt Q8L925 26-53) [CRC Zinc Finger (CRC-ZF), single zinc finger domain, for BiFC], the binding result in assay [2] was “no binding”.

B3: CRC Intermediate (CRC-IM), single intermediate domain, for BiFC (domain or fragment, UniProt Q8L925 54-108)
chain: GNLSFLTTTPPLQGHVSLTLQMQSFGGSDYKKGSSSSSSSSTSSDQPPSPSPPFV
On to B3, for which the binding result in assay [3] is “no binding”.
VKPPEKKQRLPSAYNRFMRDEIQRIKSANPEIPHREAFSAAAKNWAK (domain or fragment, UniProt Q8L925 109-155) [CRC YABBY (CRC-YD), single YABBY domain, YFPC- and YFPN-tagged for BiFC]: the binding entry in assay [4] was “binds”.

B4: YABBY 3 (YAB3), yeast two-hybrid fusion (protein, UniProt Q9XFB1 1-240)
chain: T5 sequence
With B4, the binding entry in assay [1] is “no binding”.

B5: CRABS CLAW (CRC), full length, yeast two-hybrid fusion (protein, UniProt Q8L925 1-181)
chain: T1 sequence
As for B5, the binding entry in assay [5], in assay [6], in assay [7] and in assay [8] was “no binding” throughout.

B6: FILAMENTOUS FLOWER (FIL), yeast two-hybrid fusion (protein, UniProt O22152 1-229)
chain: T4 sequence
In the case of B6, the binding result in assay [1] was “no binding”.
